Measurements reported in the supplement of paper PMC12067093, “Discovery and optimisation of a covalent ligand for TRIM25 and its application to targeted protein ubiquitination” (Chemical Science, 2025).
The other results are listed elsewhere or left out.

Compound: Cc1cc(ccc1-c1ccccc1)C(=O)N1CCCN(CC1)C(=O)CCl [compound 10]
Experiment: probe-labelled cysteine peptide fold change vs DMSO (competition) (log2 fold change); higher = less target engagement (more negative = stronger competition)
Settings: THP-1, incubation time: 4 h
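Further: competitive profiling in live THP-1 cells: cysteine peptides tagged with an iodoacetamide desthiobiotin (IA-DTB) probe, intensity after compound treatment relative to DMSO-treated cells.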

Row | Target | probe-labelled cysteine peptide fold change (10 µM) | probe-labelled cysteine peptide fold change (50 µM)
1 | PPP1R8_Q12972_16_AAAANSGSSLPLFDCPTWAGKPPPGLHLDVVKGDK (UniProt Q12972) | -0.0956 | -0.45
2 | PPOX_P50336_410_EMPSHCLVHLHK (UniProt P50336) | 0.00157 | -0.359
3 | PPIP5K2_O43314_729_IPDIYDCIK (UniProt O43314) | 0.0709 | 0.134
4 | PREP_P48147_264_LWYCDLQQESSGIAGILK (UniProt P48147) | 0.0388 | 0.112
5 | PPIP5K2_O43314_164_ECNLIEGEDHVEVNGEVFQK (UniProt O43314) | 0.0269 | 0.119
6 | PPP6R2_O75170_37_EHVTLQELMDEDDILQECK (UniProt O75170) | 0.00336 | 0.121
7 | PPIP5K2_O43314_164_ECNLIEGEDHVEVNGEVFQKPFVEK (UniProt O43314) | 0.0459 | -0.425
8 | PPP2R2A_P63151_13_AGAGGGNDIQWCFSQVK (UniProt P63151) | -0.147 | -0.13
9 | PPP5C_P53041_382_NRQPPDSGPMCDLLWSDPQPQNGR (UniProt P53041) | -0.163 | 0.0203
10 | PPP2R5C_Q13362_50_QCCVLFDFVSDPLSDLK (UniProt Q13362) | -0.00357 | -0.0849
11 | PREPL_Q4J6C6_227_CHDVYR (UniProt Q4J6C6) | 0.00281 | -0.172
12 | PRDX5_P30044_100_GVLFGVPGAFTPGCSK (UniProt P30044) | -0.408 | -0.68
13 | PREP_P48147_526_QNCFDDFQCAAEYLIK (UniProt P48147) | -0.352 | -0.0694
14 | PPP6R1_Q9UPN7_326_LSCFHQLLLEPPKLEPLQMTWGMLAPPLGNTR (UniProt Q9UPN7) | -0.092 | 0.077
15 | PREP_P48147_343_DVLEWIACVR (UniProt P48147) | 0.146 | 0.394
16 | PPP6R2_O75170_216_QSNASQTLCDIVR (UniProt O75170) | 0.0523 | -0.189
17 | PPP1CB_P62140_201_IMRPTDVPDTGLLCDLLWSDPDKDVQGWGENDR (UniProt P62140) | -0.0477 | -0.347
18 | PPP4R3B_Q5MIZ7_90_AGCDEIWEK (UniProt Q5MIZ7) | 0.108 | 0.445
19 | PRDX6_P30041_91_DINAYNCEEPTEKLPFPIIDDR (UniProt P30041) | -0.373 | -1.02
20 | PREX1_Q8TCU6_1221_LHGCLEHLFNQVDSINALLK (UniProt Q8TCU6) | 0.0574 | 0.188
21 | PPP4R1_Q8TF05_645_HCAYSLPGVALTLGR (UniProt Q8TF05) | 0.165 | 0.108

Row | Target | probe-labelled cysteine peptide fold change (10 µM) | probe-labelled cysteine peptide fold change (50 µM)
22 | PPM1E_Q8WY54_307_QEMFPHDPAEALCR (UniProt Q8WY54) | -0.144 | -0.28
23 | PPP6R1_Q9UPN7_216_LIEQIHPSKDENQHSNASQSLCDIIR (UniProt Q9UPN7) | -0.27 | -0.696
24 | PPP1R3D_O95685_279_DYSLTCR (UniProt O95685) | 0.323 | 0.684
25 | PRDX5_P30044_100_KGVLFGVPGAFTPGCSK (UniProt P30044) | -0.389 | -0.855
26 | PRDX1_Q06830_83_LNCQVIGASVDSHFCHLAWVNTPK (UniProt Q06830) | 0.119 | -0.219
27 | PPT1_P50897_160_CPGESSHICDFIR (UniProt P50897) | -0.276 | -0.185
28 | PPP1R3G_B7ZBB8_225_VQCSTASGAEVK (UniProt B7ZBB8) | -0.163 | -0.289
29 | PRDX1_Q06830_83_KLNCQVIGASVDSHFCHLAWVNTPK (UniProt Q06830) | 0.0758 | -0.191
30 | PPP1R7_Q15435_112_CIENLEELQSLR (UniProt Q15435) | -0.00604 | 0.158
31 | PPP2R5E_Q16537_106_GCLTEQTYPEVVR (UniProt Q16537) | 0.0684 | 0.0376
32 | PREB_Q9HCU5_128_KCGAETQHEGLELR (UniProt Q9HCU5) | -0.113 | -0.181
33 | PREB_Q9HCU5_128_CGAETQHEGLELR (UniProt Q9HCU5) | 0.0177 | -0.119
34 | PPIP5K2_O43314_615_SANMNGLLDSDSDSLSSCQQR (UniProt O43314) | -0.167 | -0.252
35 | PPME1_Q9Y570_238_QCEGITSPEGSK (UniProt Q9Y570) | -0.174 | -0.29
36 | PPP6R3_Q5H9R7_519_NTVDLVTTCHIHSSSDDEIDFK (UniProt Q5H9R7) | 0.257 | -0.0983
37 | PREX1_Q8TCU6_120_DFLAALEYCLHPEPQSQHELGNVFLK (UniProt Q8TCU6) | 0.306 | 0.0629
38 | PPP2R1B_P30154_516_MTTLFCINALSEACGQEITTK (UniProt P30154) | 0.349 | -0.219
39 | PPP6R3_Q5H9R7_830_LSTSQDAACK (UniProt Q5H9R7) | -0.432 | -0.549
40 | PREPL_Q4J6C6_184_IRTEDSEASTCVIIK (UniProt Q4J6C6) | 0.143 | 0.142
41 | PREP_P48147_532_QNCFDDFQCAAEYLIK (UniProt P48147) | -0.0411 | 0.182

Exported comma-delimited: entries from further up
Row,Target,probe-labelled cysteine peptide fold change (10 µM),probe-labelled cysteine peptide fold change (50 µM)
21,PPP4R1_Q8TF05_645_HCAYSLPGVALTLGR (UniProt Q8TF05),0.165,0.108
22,PPM1E_Q8WY54_307_QEMFPHDPAEALCR (UniProt Q8WY54),-0.144,-0.28
